No constants are given. Whether binding was seen depends on the method and setting. Binding seen in cells or lysates may run through a third protein. Some binding calls cover weakened binding; strength is not graded here.
Legend:
Test in all cases: co-IP; HEK293T transfected with HA-tagged Pfn1 (WT, S71A or S71D), lysed by RIPA buffer, immunoprecipitation with anti-HA antibody, Western blot for actin and VASP
[1] = molecular target: HA-tagged Pfn1(S71D) (human) (UniProt P07737)
[2] = molecular target: HA-tagged Pfn1(S71A) (human) (UniProt P07737)
[3] = molecular target: HA-tagged wild type Pfn1 (profilin-1) (human) (UniProt P07737)

Chains of the proteins cited; added tags and fusions are not shown. Lines headed by an entry give the natural chain unless they say otherwise; changes in a name come on top. A line that says so, or that is headed by a name, gives the form on record, which may keep a tag or linker. Residues count along the entry.
HA-tagged wild type Pfn1 (profilin-1) (P07737, residues 2-140): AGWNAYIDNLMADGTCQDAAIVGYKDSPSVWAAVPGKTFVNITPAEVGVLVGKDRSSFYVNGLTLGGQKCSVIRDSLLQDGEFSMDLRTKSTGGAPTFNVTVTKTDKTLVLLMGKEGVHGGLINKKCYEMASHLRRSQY
HA-tagged Pfn1(S71D) (P07737, form named): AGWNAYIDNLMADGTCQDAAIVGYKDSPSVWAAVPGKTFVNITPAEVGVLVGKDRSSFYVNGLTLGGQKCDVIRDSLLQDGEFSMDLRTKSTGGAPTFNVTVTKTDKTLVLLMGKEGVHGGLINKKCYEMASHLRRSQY
HA-tagged Pfn1(S71A) (P07737, form named): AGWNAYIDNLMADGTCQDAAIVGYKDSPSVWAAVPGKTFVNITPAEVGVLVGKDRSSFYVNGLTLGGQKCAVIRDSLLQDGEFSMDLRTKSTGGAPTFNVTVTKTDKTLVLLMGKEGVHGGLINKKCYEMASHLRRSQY
UniProt P50552: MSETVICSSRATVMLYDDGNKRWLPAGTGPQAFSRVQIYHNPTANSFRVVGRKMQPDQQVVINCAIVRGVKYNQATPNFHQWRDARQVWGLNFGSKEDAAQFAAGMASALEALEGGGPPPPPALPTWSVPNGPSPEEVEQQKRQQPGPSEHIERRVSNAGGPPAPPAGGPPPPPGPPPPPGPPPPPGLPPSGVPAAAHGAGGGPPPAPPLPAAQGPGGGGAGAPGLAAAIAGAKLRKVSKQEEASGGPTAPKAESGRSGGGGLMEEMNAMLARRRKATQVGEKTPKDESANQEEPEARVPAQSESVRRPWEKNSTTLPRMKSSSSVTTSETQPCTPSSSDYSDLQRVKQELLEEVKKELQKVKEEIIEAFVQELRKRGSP

binding [1]: binds
binding [2]: binds
binding [3]: binds
Substance: vasodilator-stimulated phosphoprotein (VASP) (from UniProt P50552 1-380)
